Assay results as given in PMC8154061.
Where a chain is given by its changes, count along the chain named. Numbers in names are those of the source. These are yes or no findings as the source states them, for the method shown. For part of these data: Binding calls can cover weak binding; strength is not graded here. Each block holds one binder with its values, some of them ahead of it.

What was measured:
[1] = biological target: N-terminus of SLAH3 (SLAH3-NT), yeast two-hybrid bait (Arabidopsis thaliana); experiment: two-hybrid; yeast strain AH109; SLAH3 regions in pGBT9BS as bait, SnRK1.1 and its fragments in pGADGH as prey; growth on synthetic dropout medium -L-W-H-A
[2] = biological target: C-terminus of SLAH3 (SLAH3-CT), yeast two-hybrid bait (Arabidopsis thaliana); experiment: as above

- binding [1]: no binding
- binding [2]: binds
B1: SNF1-related protein kinase 1 (SnRK1.1), full length, yeast two-hybrid prey (protein, UniProt Q38997 1-512)
chain: MDGSGTGSRSGVESILPNYKLGRTLGIGSFGRVKIAEHALTGHKVAIKILNRRKIKNMEMEEKVRREIKILRLFMHPHIIRLYEVIETPTDIYLVMEYVNSGELFDYIVEKGRLQEDEARNFFQQIISGVEYCHRNMVVHRDLKPENLLLDSKCNVKIADFGLSNIMRDGHFLKTSCGSPNYAAPEVISGKLYAGPEVDVWSCGVILYALLCGTLPFDDENIPNLFKKIKGGIYTLPSHLSPGARDLIPRMLVVDPMKRVTIPEIRQHPWFQAHLPRYLAVPPPDTVQQAKKIDEEILQEVINMGFDRNHLIESLRNRTQNDGTVTYYLILDNRFRASSGYLGAEFQETMEGTPRMHPAESVASPVSHRLPGLMEYQGVGLRSQYPVERKWALGLQSRAHPREIMTEVLKALQDLNVCWKKIGHYNMKCRWVPNSSADGMLSNSMHDNNYFGDESSIIENEAAVKSPNVVKFEIQLYKTRDDKYLLDLQRVQGPQFLFLDLCAAFLAQLRVL

- binding [2]: binds
B2: kinase-dead variant of SnRK1.1 (K48M), yeast two-hybrid prey (protein, UniProt Q38997 1-512)
chain: B1 chain with K48M
